# Assay results taken from paper doi:10.1101/817049.
# By UniProt entry, the sequences of proteins in these tests, tags left out.
# UniProt P37238: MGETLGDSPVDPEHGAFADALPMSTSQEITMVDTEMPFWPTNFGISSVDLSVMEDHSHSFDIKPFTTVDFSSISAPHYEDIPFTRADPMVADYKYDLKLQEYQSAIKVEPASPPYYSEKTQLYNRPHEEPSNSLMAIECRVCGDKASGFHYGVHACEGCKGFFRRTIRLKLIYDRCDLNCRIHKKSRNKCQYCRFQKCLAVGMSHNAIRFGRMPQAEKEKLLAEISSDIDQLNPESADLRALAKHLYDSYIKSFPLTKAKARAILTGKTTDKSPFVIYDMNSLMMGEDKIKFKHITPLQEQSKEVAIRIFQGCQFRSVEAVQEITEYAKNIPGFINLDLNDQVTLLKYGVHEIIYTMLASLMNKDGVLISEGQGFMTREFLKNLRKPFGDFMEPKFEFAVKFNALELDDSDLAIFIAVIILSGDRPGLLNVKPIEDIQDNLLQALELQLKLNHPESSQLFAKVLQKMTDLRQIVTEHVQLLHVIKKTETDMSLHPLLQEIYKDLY
# Where two headings read alike, the source gives them in different places. No constants are given. Whether binding was seen depends on the method and setting. In cells and extracts the contact can be indirect. Some entries that bind do so weakly or less than the wild type. For some of these results: Where a sequence is shown, tags or fusion partners need not be part of it.
# B1: endogenous PGC-1α of mouse muscle (protein, UniProt O70343 1-797)
# chain: MAWDMCSQDSVWSDIECAALVGEDQPLCPDLPELDLSELDVNDLDTDSFLGGLKWCSDQSEIISNQYNNEPANIFEKIDEENEANLLAVLTETLDSLPVDEDGLPSFDALTDGAVTTDNEASPSSMPDGTPPPQEAEEPSLLKKLLLAPANTQLSYNECSGLSTQNHAANHTHRIRTNPAIVKTENSWSNKAKSICQQQKPQRRPCSELLKYLTTNDDPPHTKPTENRNSSRDKCASKKKSHTQPQSQHAQAKPTTLSLPLTPESPNDPKGSPFENKTIERTLSVELSGTAGLTPPTTPPHKANQDNPFKASPKLKPSCKTVVPPPTKRARYSECSGTQGSHSTKKGPEQSELYAQLSKSSGLSRGHEERKTKRPSLRLFGDHDYCQSLNSKTDILINISQELQDSRQLDFKDASCDWQGHICSSTDSGQCYLRETLEASKQVSPCSTRKQLQDQEIRAELNKHFGHPCQAVFDDKSDKTSELRDGDFSNEQFSKLPVFINSGLAMDGLFDDSEDESDKLSYPWDGTQPYSLFDVSPSCSSFNSPCRDSVSPPKSLFSQRPQRMRSRSRSFSRHRSCSRSPYSRSRSRSPGSRSSSRSCYYYESSHYRHRTHRNSPLYVRSRSRSPYSRRPRYDSYEAYEHERLKRDEYRKEHEKRESERAKQRERQKQKAIEERRVIYVGKIRPDTTRTELRDRFEVFGEIEECTVNLRDDGDSYGFITYRYTCDAFAALENGYTLRRSNETDFELYFCGRKQFFKSNYADLDTNSDDFDPASTKSKYDSLDFDSLLKEAQRSLRR
# Legend:
# Assay in all cases: co-IP
# [1] = molecular target: T1, endogenous PGC-1α of mouse muscle (mouse (endogenous in muscle)) (UniProt O70343)
# T1 sequence: B1 chain
# [2] = molecular target: T2, endogenous TUG of mouse hindlimb muscle (mouse (endogenous in hindlimb muscle)) (UniProt Q8VBT9)
# T2 sequence: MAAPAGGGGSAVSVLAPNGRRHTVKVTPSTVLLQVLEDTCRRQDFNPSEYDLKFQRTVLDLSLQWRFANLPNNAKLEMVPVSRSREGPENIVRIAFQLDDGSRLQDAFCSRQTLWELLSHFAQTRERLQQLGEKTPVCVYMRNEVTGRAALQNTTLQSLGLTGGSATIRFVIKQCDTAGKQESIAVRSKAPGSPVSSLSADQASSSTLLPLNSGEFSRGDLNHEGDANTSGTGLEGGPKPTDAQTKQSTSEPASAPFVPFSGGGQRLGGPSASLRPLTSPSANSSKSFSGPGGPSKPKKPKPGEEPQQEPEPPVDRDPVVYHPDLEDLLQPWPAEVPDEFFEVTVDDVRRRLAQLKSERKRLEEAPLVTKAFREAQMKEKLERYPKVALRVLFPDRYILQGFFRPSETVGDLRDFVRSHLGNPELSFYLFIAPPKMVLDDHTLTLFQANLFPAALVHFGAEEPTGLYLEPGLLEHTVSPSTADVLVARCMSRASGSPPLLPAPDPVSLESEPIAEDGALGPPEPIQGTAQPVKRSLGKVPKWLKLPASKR
# flag-tagged PGC-1α = molecular target: T3, flag-tagged PGC-1α (UniProt O70343)
# T3 sequence: B1 chain
# [3] = molecular target: T2, endogenous TUG of mouse hindlimb muscle (mouse (endogenous in hindlimb muscle)); remark: listed apart in the source
molecule,measurement,setting,value
endogenous PPARγ of mouse muscle (from UniProt P37238 1-505),binding,[1],binds
same,binding,[2],binds
flag-tagged PPARγ (from UniProt P37238 1-505),binding,flag-tagged PGC-1α,binds
B1,binding,[3],binds
